Measurements published in publication PMC8618245, “Mechanisms of CP190 Interaction with Architectural Proteins in Drosophila Melanogaster” (International Journal of Molecular Sciences, 2021).
These are yes or no findings as the source states them, for the method shown. For some assays here: A result given as binding can be weak or reduced; the word gives no strength. Tags and fused reporters may be left off the sequences shown. For some assays here: In cells and extracts the contact can be indirect.

Legend:
[1] = molecular target: CP190 BTB domain V114A fused to the GAL4 DNA-binding domain (Drosophila melanogaster); experiment: two-hybrid; C2H2 proteins or their fragments fused to the GAL4 activation domain (pGAD424), CP190 BTB, D or M domain or full-length CP190 fused to the GAL4 DNA-binding domain (pGBT9); yeast strain pJ69-4A; growth on media without tryptophan, leucine, histidine and adenine compared after 2–3 days, 30 °C; includes the screen of a library of 154 C2H2 proteins
[2] = molecular target: CP190 BTB domain K117S fused to the GAL4 DNA-binding domain (Drosophila melanogaster); experiment: as above
[3] = molecular target: CP190 BTB domain F15A fused to the GAL4 DNA-binding domain (Drosophila melanogaster); experiment: as above
[4] = molecular target: CP190 BTB domain K19A fused to the GAL4 DNA-binding domain (Drosophila melanogaster); experiment: as above
[5] = molecular target: CP190 BTB domain L118A fused to the GAL4 DNA-binding domain (Drosophila melanogaster); experiment: as above
[6] = molecular target: CP190 BTB domain V114N fused to the GAL4 DNA-binding domain (Drosophila melanogaster); experiment: as above
[7] = molecular target: CP190 BTB domain V7A fused to the GAL4 DNA-binding domain (Drosophila melanogaster); experiment: as above
[8] = molecular target: CP190 BTB domain fused to the GAL4 DNA-binding domain (Drosophila melanogaster); experiment: as above
[9] = molecular target: GST-fused CG4730 1–133 (Drosophila melanogaster); experiment: pull-down; GST pull-down from lysate of BL21 cells co-expressing the GST-fused C2H2 fragment and 6×His-Thioredoxin-fused CP190 1–126; glutathione agarose, buffer C (20 mM Tris pH 7.5, 150 mM NaCl, 10 mM MgCl2, 0.1 mM ZnCl2, 0.1% NP40, 10% glycerol, 1 mM DTT), +4 °C, washes with 500 mM NaCl
[10] = molecular target: GST-fused CG31365 324–455 (Drosophila melanogaster); experiment: as above

binding [9]	binding [10]	Binder	also measured
–	–	Pita ∆114–164 fused to the GAL4 activation domain (protein, UniProt Q95RQ8) MAAKLEVREAMLTEKRVCRFCLTEQKLASIFEENPRVKTTANLPLQIMAITAIEVYAGDGMPGHICLECRLLFEHCYRFKQMCKRAETLLRQYPLTGNWPSPLEKPRAPMTMVAGSSPVPRRSHAYELKVDNNQELSMDDVQSMLEDMASELEKEFPDIPQKASPVKPKVLNKSSIRILNKGPAAPVEPRLATPKVKRDDSGNVAIVTEVLDSDLPLDDQDDPTKNAEKVATDVFPCPDCERSFPLQQLLEIHRLNHTRSRSFQCLLCEKSFFSKYDLAKHNFVHTGERPFKCAICSKAFTRKALLHRHERTHTDVPKFICVYCEKPFLSRQEMEKHAERHQKKRPFQCGVCTKSFAFKQGLERHETVHSTNLPFPCQHCERSFSTASKLARHLVAHAGKRAYPCKYCHKSYMLSHHLSRHLRTHTQTSDASFVCSECKVSYSNYNDLLDHALIHATASLKCPMCRKQIEDIDSVESHMDQHKQSERHACEFCDHIFLTQKCLQRHIEDDHVVEMEPYQNEFEDDGEGEGGVDEKEEHLDDFEDMDNVKQEEFVTEYLEDDALYEDHLDDSDESFTPPPPKQRKTNPPKDAQQSVRQTRSRDAQRITQKTGKNEGKPHHKLERNLKNRRSAK	binding [1]: binds; binding [2]: binds; binding [3]: binds; binding [4]: binds; binding [5]: no binding; binding [6]: binds; binding [7]: no binding
–	–	Su(Hw) fused to the GAL4 activation domain (protein, UniProt P08970 1-941) MSASKEGKEKKGKLLGVENISPPKDKRPATRMKLLNDVGAGEDSEASTTTTTSRTPSNKQEKRGSVAGSRIKILNEEILGTPKTEKRGATKSTAPAASTVKILNEKKTPSATVTAVETTKIKTSPSKRKKMEHYVLQAVKSENTKADTTVTVVTEEDDTIDFILADDEEVVPGRIENNNGQEIVVTEDDEDLGEDGDEDGEDSSGKGNSSQTKIKEIVEHVCGKCYKTFRRVQSLKKHLEFCRYDSGYHLRKADMLKNLEKIEKDAVVMEKKDICFCCSESYDTFHLGHINCPDCPKSFKTQTSYERHIFITHSEFSDFPCSICNANLRSEALLALHEEQHKSRGKPYACKICGKDFTRSYHLKRHQKYSSCSSNETDTMSCKVCDRVFYRLDNLRSHLKQHLGTQVVKKPEYMCHTCKNCFYSLSTLNIHIRTHTGEKPFDCDLCDKKFSALVALKKHRRYHTGEKPYSCTVCNQAFAVKEVLNRHMKRHTGERPHKCDECGKSFIQATQLRTHSKTHIRPFPCEQCDEKFKTEKQLERHVKTHSRTKRPVFSCAECKRNFRTPALLKEHMDEGKHSPKQQRSSMRSAVKIMERTDCAICDKNFDSSDTLRRHIRTVHECDPDDIFGVEPHPSKRAKKDIESEEVVPVALNTSAGSLISSQTDGNGVVVREFLVDEGDGAAQTITLENETYTILPLDGAIEGEQLTDEAGVKPEAKKEEAQVSPVVKKEQRKSLAASLAAAIADNLEESCSEDDFSGEILTEEDIKLKENVGKLIDMLVDPPILKKYGWPNAPEETVLCKVIENCGHDLTKGGENYAELDYGSRMREYCKLLFTVVIHNDSIKSLLNNFPIDDVIEYVLGDEDQDEGGLDKDNESHSGDEEAVSVTGETKTNEIREKPEKKEVSAKSEKKEIVGKAVDKDNSEEVVRENKKKPVGEQEKA	binding [8]: binds
binds	binds	6×His-Thioredoxin-fused CP190 1–126 F15A (domain or fragment, Drosophila melanogaster, UniProt Q24478 1-126, looked up, CP190, Drosophila melanogaster, residues 1–126 (BTB domain); source: E. coli BL21, co-expressed with the GST fusion, in lysate (pull-down); bacterial expression (cross-linking)) MGEVKSVKVDNWGVAFLQKLQNFFNKTDYCDLTLQFRDNSQLKVHRLVLSACTDYFNVLEQTCEIVDDALIMPNEFQADVVVPIVNFMYTGTLEFELKMYGKLLRTAKEMNMTVLLKLLEAHRRTM	–
binds	binds	6×His-Thioredoxin-fused CP190 1–126 L118A (domain or fragment, Drosophila melanogaster, UniProt Q24478 1-126, looked up, CP190, Drosophila melanogaster, residues 1–126 (BTB domain); also called BTB^L118A; source: E. coli BL21, co-expressed with the GST fusion, in lysate (pull-down); bacterial expression (cross-linking)) MGEVKSVKVDNWGVFFLQKLQNFFNKTDYCDLTLQFRDNSQLKVHRLVLSACTDYFNVLEQTCEIVDDALIMPNEFQADVVVPIVNFMYTGTLEFELKMYGKLLRTAKEMNMTVLLKALEAHRRTM	–
binds	binds	6×His-Thioredoxin-fused CP190 1–126 K117S (domain or fragment, Drosophila melanogaster, UniProt Q24478 1-126, looked up, CP190, Drosophila melanogaster, residues 1–126 (BTB domain); source: E. coli BL21, co-expressed with the GST fusion, in lysate (pull-down); bacterial expression (cross-linking)) MGEVKSVKVDNWGVFFLQKLQNFFNKTDYCDLTLQFRDNSQLKVHRLVLSACTDYFNVLEQTCEIVDDALIMPNEFQADVVVPIVNFMYTGTLEFELKMYGKLLRTAKEMNMTVLLSLLEAHRRTM	–
binds	binds	6×His-Thioredoxin-fused CP190 1–126 V114N (domain or fragment, Drosophila melanogaster, UniProt Q24478 1-126, looked up, CP190, Drosophila melanogaster, residues 1–126 (BTB domain); source: E. coli BL21, co-expressed with the GST fusion, in lysate (pull-down); bacterial expression (cross-linking)) MGEVKSVKVDNWGVFFLQKLQNFFNKTDYCDLTLQFRDNSQLKVHRLVLSACTDYFNVLEQTCEIVDDALIMPNEFQADVVVPIVNFMYTGTLEFELKMYGKLLRTAKEMNMTNLLKLLEAHRRTM	–
binds	binds	6×His-Thioredoxin-fused CP190 1–126 V114A (domain or fragment, Drosophila melanogaster, UniProt Q24478 1-126, looked up, CP190, Drosophila melanogaster, residues 1–126 (BTB domain); source: E. coli BL21, co-expressed with the GST fusion, in lysate (pull-down); bacterial expression (cross-linking)) MGEVKSVKVDNWGVFFLQKLQNFFNKTDYCDLTLQFRDNSQLKVHRLVLSACTDYFNVLEQTCEIVDDALIMPNEFQADVVVPIVNFMYTGTLEFELKMYGKLLRTAKEMNMTALLKLLEAHRRTM	–
binds	binds	6×His-Thioredoxin-fused CP190 1–126 K19A (domain or fragment, Drosophila melanogaster, UniProt Q24478 1-126, looked up, CP190, Drosophila melanogaster, residues 1–126 (BTB domain); source: E. coli BL21, co-expressed with the GST fusion, in lysate (pull-down); bacterial expression (cross-linking)) MGEVKSVKVDNWGVFFLQALQNFFNKTDYCDLTLQFRDNSQLKVHRLVLSACTDYFNVLEQTCEIVDDALIMPNEFQADVVVPIVNFMYTGTLEFELKMYGKLLRTAKEMNMTVLLKLLEAHRRTM	–
binds	binds	6×His-Thioredoxin-fused CP190 1–126 V7A (domain or fragment, Drosophila melanogaster, UniProt Q24478 1-126, looked up, CP190, Drosophila melanogaster, residues 1–126 (BTB domain); also called BTB^V7A; source: E. coli BL21, co-expressed with the GST fusion, in lysate (pull-down); bacterial expression (cross-linking)) MGEVKSAKVDNWGVFFLQKLQNFFNKTDYCDLTLQFRDNSQLKVHRLVLSACTDYFNVLEQTCEIVDDALIMPNEFQADVVVPIVNFMYTGTLEFELKMYGKLLRTAKEMNMTVLLKLLEAHRRTM	–
–	–	Pita ∆220–232 fused to the GAL4 activation domain (protein, UniProt Q95RQ8) MAAKLEVREAMLTEKRVCRFCLTEQKLASIFEENPRVKTTANLPLQIMAITAIEVYAGDGMPGHICLECRLLFEHCYRFKQMCKRAETLLRQYPLTGNWPSPLEKPRAPMTMVASKKLLVVPAKTAEPSETPKKLLNTMAKSSSQVIIEDVQVLESAMVTPRTVAGSSPVPRRSHAYELKVDNNQELSMDDVQSMLEDMASELEKEFPDIPQKASPVKPGPAAPVEPRLATPKVKRDDSGNVAIVTEVLDSDLPLDDQDDPTKNAEKVATDVFPCPDCERSFPLQQLLEIHRLNHTRSRSFQCLLCEKSFFSKYDLAKHNFVHTGERPFKCAICSKAFTRKALLHRHERTHTDVPKFICVYCEKPFLSRQEMEKHAERHQKKRPFQCGVCTKSFAFKQGLERHETVHSTNLPFPCQHCERSFSTASKLARHLVAHAGKRAYPCKYCHKSYMLSHHLSRHLRTHTQTSDASFVCSECKVSYSNYNDLLDHALIHATASLKCPMCRKQIEDIDSVESHMDQHKQSERHACEFCDHIFLTQKCLQRHIEDDHVVEMEPYQNEFEDDGEGEGGVDEKEEHLDDFEDMDNVKQEEFVTEYLEDDALYEDHLDDSDESFTPPPPKQRKTNPPKDAQQSVRQTRSRDAQRITQKTGKNEGKPHHKLERNLKNRRSAK	binding [8]: no binding
